Results taken from the supplement of paper PMC9233669.
Variants at the background level are over-represented here.

Tests used:
biotinyl-Trp-oxazolone = assay: self-aminoacylation, catalytic enhancement (BWO) (fold over background); higher = more active; k-Seq, kA / k0A0; sequences stand for … in GGGAAUGGAUCCACAUCUACGAAUUC…UUCACUGCAGACUUGACGAAGCUG
Summary of the method: (§1)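 Each biotinyl-aminoacyl-oxazolone, at 2–1250 μM, was incubated with mutagenized RNA pools (0.43 μM) carrying a 21-nt variable region. The 50 μL reactions contained HEPES/NaCl/KCl/MgCl2/CaCl2 buffer with 5% acetonitrile at pH 6.9–7.0 and ran for 90 minutes at room temperature. After streptavidin capture, RNA was measured by qPCR in triplicate and by Illumina sequencing, and catalytic enhancement was calculated as median kA over the uncatalyzed rate from a pseudo-first-order fit of per-sequence fraction reacted.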

biotinyl-Val-oxazolone = assay: self-aminoacylation, catalytic enhancement (BVO) (fold over background); higher = more active; k-Seq, kA / k0A0; sequences stand for … in GGGAAUGGAUCCACAUCUACGAAUUC…UUCACUGCAGACUUGACGAAGCUG
Summary of the method: as §1

biotinyl-Ile-oxazolone = assay: self-aminoacylation, catalytic enhancement (BIO) (fold over background); higher = more active; k-Seq, kA / k0A0; sequences stand for … in GGGAAUGGAUCCACAUCUACGAAUUC…UUCACUGCAGACUUGACGAAGCUG
Summary of the method: as §1

biotinyl-Met-oxazolone = assay: self-aminoacylation, catalytic enhancement (BMO) (fold over background); higher = more active; k-Seq, kA / k0A0; sequences stand for … in GGGAAUGGAUCCACAUCUACGAAUUC…UUCACUGCAGACUUGACGAAGCUG
Summary of the method: as §1

biotinyl-Leu-oxazolone = assay: self-aminoacylation, catalytic enhancement (BLO) (fold over background); higher = more active; k-Seq, kA / k0A0; sequences stand for … in GGGAAUGGAUCCACAUCUACGAAUUC…UUCACUGCAGACUUGACGAAGCUG
Summary of the method: as §1

Sequence | self-aminoacylation (biotinyl-Trp-oxazolone) | self-aminoacylation (biotinyl-Val-oxazolone) | self-aminoacylation (biotinyl-Ile-oxazolone) | self-aminoacylation (biotinyl-Met-oxazolone) | self-aminoacylation (biotinyl-Leu-oxazolone)
AUUAUCCUGGUCAUCGAGUUA [Fam2.1 aminoacylation ribozyme variant] | 1.09 | 1.31 | 1.2 | 1.62 | 1.51
AUUAUCCUGGUCAUCUAGUGA [Fam2.1 aminoacylation ribozyme variant] | 13.2 | 4.98 | 4.87 | 10.6 | 10.8
AUUCACCUACGUCAUCGAGUG [Fam2.2 aminoacylation ribozyme variant] | 3.77 | 2.71 | 2.45 | 4.25 | 4.08
AUUCACCUAGGUCAUCGCGAG [Fam2.2 aminoacylation ribozyme variant] | 1.22 | 2.31 | 1.58 | 1.76 | 1.89
AUUCACCUAGGUCAUCGUGCG [Fam2.2 aminoacylation ribozyme variant] | 0.796 | 1.41 | 1.21 | 1.62 | 1.65
AUUCACCUAGGUCCUCGUGUG [Fam2.2 aminoacylation ribozyme variant] | 0.792 | 1.14 | 1.04 | 1.31 | 1.54
AUUCACCUAGGUGAGCGGGUG [Fam2.2 aminoacylation ribozyme variant] | 1.69 | 1.63 | 1.42 | 1.5 | 1.66
AUUCAGCUAGGUCAUCGGAUG [Fam2.2 aminoacylation ribozyme variant] | 0.809 | 0.707 | 0.772 | 0.528 | 0.746
AUUCCCCUGGUCAUGGAGUGA [Fam2.1 aminoacylation ribozyme variant] | 4.27 | 3.12 | 2.92 | 3.85 | 3.99
AUUCCGCUGGUCAUCGAGUGA [Fam2.1 aminoacylation ribozyme variant] | 8.05 | 3.7 | 3.34 | 6.08 | 6.79
AUUCGCCUAGGUCAUCGGUUG [Fam2.2 aminoacylation ribozyme variant] | 1.27 | 1.21 | 1.17 | 1.29 | 1.24
CAACACUUCAAGAAAUCGGUC [Fam1B.1 aminoacylation ribozyme variant] | 5.88 | 0.871 | 0.956 | 1.05 | 0.914
CAACACUUCAAGCAAUCGGAC [Fam1B.1 aminoacylation ribozyme variant] | 0.815 | 0.966 | 1.16 | 0.775 | 0.957
